According to patent publication US20190145962A1, “PEPTIDE FOR […] OF AMYLOSPHEROIDS (ASPD), AND […] SCREENING METHOD” (TAO HEALTH LIFE PHARMA CO., LTD., priority 2016, published 2019):
Some of these results come from one statement about several compounds together.

System: binding of ASPD to neurons (synthetic ASPD, primary cultured rat hippocampal neurons)
Experiment: Evaluation of ASPD-inhibitory peptides: inhibition of binding of ASPD to cultured neurons (immunofluorescence imaging, titer)
Assay type: cell-based
Conditions: Titer=ED50[ASPD+Peptide]/ED50[ASPD]; ASPD pretreated with peptide 4° C. 15 minutes, then rat hippocampal neurons 37° C. 15 minutes
Protocol: Evaluation of peptides that inhibits binding of ASPD to neurons was performed by the following method.
Step 1: Adding a liquid mixture containing peptide and ASPD, which have been mixed together and then incubated, to cultured mature neurons.
Step 2: Degenerating (immobilizing) the neurons.
Step 3: Immunostaining the neurons and the ASPD, respectively, to perform imaging.
Step 4: Analyzing the image to quantify the ASPD bound to the neurons.
Step 5: Evaluating the peptides using the amount of the ASPD bound and/or an analytical value obtained therefrom.
Steps 1 to 3 were performed as follows:
A liquid mixture of peptide and synthetic ASPD was incubated at 4° C. for 15 minutes to pretreat the ASPD and this liquid mixture was added to primary cultured rat hippocampal neurons cultured in a 96-well plate.
After incubation at 37° C. for 15 minutes in a CO2 incubator, the wells were washed with PBS. Then, 2% paraformaldehyde (50 μl/well) was added thereto for immobilization performed for 20 minutes at 37° C. and further 4% paraformaldehyde (50 μl/well) was added thereto for immobilization performed for 20 minutes at 37° C. After washing and blocking, a primary antibody solution containing anti-ASPD antibody (mASD3) and anti-MAP2 antibody (trade name: sc-20172, manufactured by SANTACRUZ) was added, which then was left overnight. After washing, a secondary antibody solution containing Alexa Fluoro (trademark) 568 anti-mouse antibody (trade name: A11031, manufactured by life technologies), Alexa Fluoro (trademark) 488 anti-rabbit antibody (trade name: A11034, manufactured by life technologies), and DAPI (trade name: D523, manufactured by Dojindo) was added and then fluorescence microscopic observation was performed.
Subsequently, steps 4 to 5 were performed as follows: From the microscopic observation data, a calibration curve as shown in FIG. 2 was drawn, an approximate curve was created within a range where linearity was maintained, and then ED50 was calculated. Using, as an indicator, “titer” that is defined by the ratio of ED50 of the ASPD treated with peptide to ED50 of the ASPD alone, the ASPD-binding inhibitory ability of peptide was evaluated.
Titer=ED50[ASPD+Peptide]/ED50[ASPD]

Substance | ASPD-binding inhibitory ability (titer)
HFDW [Peptide 18] | ≥ 1.5
HFHW [Peptide 23] | ≥ 1.5
HFIW [Peptide 14] | ≥ 1.5
HFKW [Peptide 22] | ≥ 1.5
HFLW [Peptide 12] | ≥ 1.5
HFRW [Peptide 16] | ≥ 1.5
HFWW [Peptide 15] | ≥ 1.5
HFYW [Peptide 24] | ≥ 1.5
Peptide 13: tetrapeptide X1X2X3X4 = H, F, G, W (HFGW) | ≥ 1.5
Peptide 17: tetrapeptide X1X2X3X4 = H, F, M, W (HFMW) | ≥ 1.5
Peptide 19: tetrapeptide X1X2X3X4 = H, F, E, W (HFEW) | ≥ 1.5
Peptide 20: tetrapeptide X1X2X3X4 = H, F, A, W (HFAW) | ≥ 1.5
Peptide 21: tetrapeptide X1X2X3X4 = H, F, V, W (HFVW) | ≥ 1.5
